PubChem BioAssay AID1259308, NCATS, 2017
Here is one part, drawn at random, of about 59,000 deposited reagents. Of all reagents, about 1,510 (2.6%) got an active call. 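Calls use total luciferase alone and ignore viability, so some active siRNAs may act by altering cell number.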 Entries without a mark were called inactive. The numbers tell different reagents against one gene apart. Further read-outs or replicates are left out here.

- Test: 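Candidate targets for better recombinant protein yield in mammalian cells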 (primary screen)
- Cells: human HEK293 embryonic kidney cells stably expressing firefly luciferase (HEK-CMV-Luc2-Hygro)
- Knock-down reagent: single siRNA against human genes, 0.8 pmol siRNA per well
- Duration: 72 h
- Read-out: 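Reporter luminescence and viable-cell signal on separate replicate plates, given as percent of non-targeting control and median/MAD z-scores, plus per-cell luciferase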
- Direction: total luciferase, z-score: higher = more reporter protein produced
- Rule for the call: 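An siRNA counts as active if its total luciferase robust z-score exceeds 3; genes with two or more such siRNAs out of three were retested with fresh siRNAs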
- Meaning of the calls: active = raised luciferase; inactive = no rise

For OXTR #1 the deposit lists total luciferase, z-score 3.51 (active). With knock-down of OXTR #2, the record shows total luciferase, z-score -0.814. After knock-down of OXTR #3, the screen gave total luciferase, z-score -0.332. MTHFD1 #1 scored total luciferase, z-score -0.457. MTHFD1 #2 gave total luciferase, z-score -0.0417. For MTHFD1 #3, the entry reads total luciferase, z-score 0.21.

For DDX21 #1 the deposit lists total luciferase, z-score -1.32. Against DDX21 #2, the entry reads total luciferase, z-score 1.8. DDX21 #3 scored total luciferase, z-score -0.924. GNG5 #1 gave total luciferase, z-score 0.961. GNG5 #2 showed total luciferase, z-score 1.45. Knock-down of GNG5 #3 came out at: total luciferase, z-score 1.08.

For MT1IP #1 the deposit lists total luciferase, z-score 0.368. Against MT1IP #2, the values are total luciferase, z-score 0.487. Against MT1IP #3, the entry reads total luciferase, z-score 1.24. RPL35A #1 scored total luciferase, z-score -2.69. After knock-down of RPL35A #2 the results were total luciferase, z-score -2.6. RPL35A #3 gave total luciferase, z-score 2.07.

Depletion of DAOA #1 came out at: total luciferase, z-score -0.36. Depletion of DAOA #2 gave: total luciferase, z-score 0.171. For DAOA #3, the values are total luciferase, z-score -0.00401.

Looked up above:
Under “total luciferase, z-score”, DAOA #1 is entered as -0.36
MTHFD1 #1, total luciferase, z-score → -0.457
